Among the data in paper PMC6291753 are binding values, retold here.

These are yes or no findings as the source states them, for the method shown. In cells and extracts the contact can be indirect. Binding calls can cover weak binding; strength is not graded here. Where a sequence is shown, tags or fusion partners need not be part of it.

Assay [1] deals with T1, GFP-HIP1R (wild-type full-length mouse HIP1R in pEGFP-C3) (mouse) (UniProt Q9JKY5).
T1 sequence: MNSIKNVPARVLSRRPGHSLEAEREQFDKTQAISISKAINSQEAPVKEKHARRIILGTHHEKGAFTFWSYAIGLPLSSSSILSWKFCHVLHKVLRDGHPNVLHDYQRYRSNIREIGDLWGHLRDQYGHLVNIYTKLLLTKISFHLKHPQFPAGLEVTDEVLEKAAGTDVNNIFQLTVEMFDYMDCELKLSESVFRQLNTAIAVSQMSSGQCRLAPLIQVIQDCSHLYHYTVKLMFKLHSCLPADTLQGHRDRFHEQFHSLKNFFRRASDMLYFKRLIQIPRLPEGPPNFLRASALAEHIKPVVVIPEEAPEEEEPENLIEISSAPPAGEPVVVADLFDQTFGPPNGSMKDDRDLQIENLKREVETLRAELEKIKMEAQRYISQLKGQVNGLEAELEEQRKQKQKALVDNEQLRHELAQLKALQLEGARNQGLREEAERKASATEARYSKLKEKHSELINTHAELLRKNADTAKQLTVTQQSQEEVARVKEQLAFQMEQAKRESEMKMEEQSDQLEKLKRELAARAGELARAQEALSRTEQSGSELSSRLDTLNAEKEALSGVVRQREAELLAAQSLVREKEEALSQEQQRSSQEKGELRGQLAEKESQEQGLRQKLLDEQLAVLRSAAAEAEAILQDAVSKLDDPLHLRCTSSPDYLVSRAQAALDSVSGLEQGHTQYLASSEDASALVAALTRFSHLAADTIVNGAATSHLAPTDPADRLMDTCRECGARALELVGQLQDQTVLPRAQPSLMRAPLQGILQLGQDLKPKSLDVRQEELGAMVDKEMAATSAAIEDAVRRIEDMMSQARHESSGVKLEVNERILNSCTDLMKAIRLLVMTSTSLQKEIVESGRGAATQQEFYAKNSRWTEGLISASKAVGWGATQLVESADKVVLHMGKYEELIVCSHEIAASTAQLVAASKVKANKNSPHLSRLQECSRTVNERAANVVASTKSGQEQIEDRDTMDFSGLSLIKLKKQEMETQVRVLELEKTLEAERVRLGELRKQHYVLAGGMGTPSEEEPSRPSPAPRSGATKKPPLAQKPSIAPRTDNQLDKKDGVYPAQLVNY
The experiment in a line: co-IP; cultured rat hippocampal neurons electroporated with GFP-HIP1R or GFP control, with or without EGF; RIPA lysate, anti-GFP antibody (results text: myc-HIP1R, anti-myc), protein A-sepharose; blot for EGFR.

For assay [2], the target named is T2, GST-HIP1R_(633–822) (mouse) (UniProt Q9JKY5).
T2 sequence: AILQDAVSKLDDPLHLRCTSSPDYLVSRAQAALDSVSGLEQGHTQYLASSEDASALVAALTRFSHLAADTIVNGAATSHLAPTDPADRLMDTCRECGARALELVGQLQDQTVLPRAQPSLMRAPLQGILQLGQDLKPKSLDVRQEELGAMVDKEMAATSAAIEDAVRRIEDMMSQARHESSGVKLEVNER
The experiment in a line: pull-down; 2 μg purified GST-HIP1R fragment incubated overnight at 4°C with RIPA lysate of high density cultured hippocampal neurons (DIV 6-8), glutathione sepharose beads 3 h; blot for EGFR; only the target purified.

As for “epidermal growth factor receptor (EGFR), endogenous in cultured rat hippocampal neurons”, the binding result in assay [1] and in assay [2] was “binds” in each case.
